According to the supplement of paper PMC10849652:
Some of the results follow.

By UniProt entry, the sequences of proteins in these tests, tags left out. Where a name states a change or a piece, a line headed by the entry shows the natural chain unless it says otherwise.
UniProt O75882: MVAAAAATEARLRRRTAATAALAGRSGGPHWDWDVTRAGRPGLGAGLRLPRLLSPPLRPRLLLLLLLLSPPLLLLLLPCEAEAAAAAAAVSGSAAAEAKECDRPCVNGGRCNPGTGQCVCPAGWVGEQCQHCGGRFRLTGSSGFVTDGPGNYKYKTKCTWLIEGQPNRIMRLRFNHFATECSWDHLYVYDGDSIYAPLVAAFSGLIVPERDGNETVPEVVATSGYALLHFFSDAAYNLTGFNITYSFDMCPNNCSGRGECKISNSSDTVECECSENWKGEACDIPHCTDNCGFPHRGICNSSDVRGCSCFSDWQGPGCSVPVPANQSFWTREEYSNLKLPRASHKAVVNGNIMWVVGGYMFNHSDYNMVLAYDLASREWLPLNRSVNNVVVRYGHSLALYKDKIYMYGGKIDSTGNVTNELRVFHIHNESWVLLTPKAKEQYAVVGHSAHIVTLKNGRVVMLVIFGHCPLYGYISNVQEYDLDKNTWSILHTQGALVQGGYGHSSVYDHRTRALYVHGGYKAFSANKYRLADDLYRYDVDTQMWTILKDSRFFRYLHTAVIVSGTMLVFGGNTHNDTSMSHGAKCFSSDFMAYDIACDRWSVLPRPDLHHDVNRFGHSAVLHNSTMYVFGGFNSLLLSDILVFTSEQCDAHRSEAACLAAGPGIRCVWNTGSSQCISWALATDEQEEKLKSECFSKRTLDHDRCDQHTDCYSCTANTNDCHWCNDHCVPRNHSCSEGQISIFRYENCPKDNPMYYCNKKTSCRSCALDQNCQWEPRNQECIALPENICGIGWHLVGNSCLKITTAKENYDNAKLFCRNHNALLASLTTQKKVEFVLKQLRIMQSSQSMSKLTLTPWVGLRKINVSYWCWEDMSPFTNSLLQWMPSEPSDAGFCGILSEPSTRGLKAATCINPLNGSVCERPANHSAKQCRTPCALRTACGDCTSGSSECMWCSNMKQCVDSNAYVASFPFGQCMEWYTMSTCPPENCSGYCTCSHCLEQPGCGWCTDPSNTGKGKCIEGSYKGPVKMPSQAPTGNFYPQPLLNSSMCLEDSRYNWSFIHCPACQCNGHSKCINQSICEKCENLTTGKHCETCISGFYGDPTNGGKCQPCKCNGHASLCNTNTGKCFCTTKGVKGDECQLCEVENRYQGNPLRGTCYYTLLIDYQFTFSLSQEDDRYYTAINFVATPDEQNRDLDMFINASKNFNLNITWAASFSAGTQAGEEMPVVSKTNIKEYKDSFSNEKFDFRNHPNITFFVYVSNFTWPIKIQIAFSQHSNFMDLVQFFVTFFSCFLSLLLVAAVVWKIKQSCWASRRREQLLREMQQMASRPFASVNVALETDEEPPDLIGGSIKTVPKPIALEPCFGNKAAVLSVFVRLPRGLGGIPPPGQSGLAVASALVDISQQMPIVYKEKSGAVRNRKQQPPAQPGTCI
UniProt Q00973: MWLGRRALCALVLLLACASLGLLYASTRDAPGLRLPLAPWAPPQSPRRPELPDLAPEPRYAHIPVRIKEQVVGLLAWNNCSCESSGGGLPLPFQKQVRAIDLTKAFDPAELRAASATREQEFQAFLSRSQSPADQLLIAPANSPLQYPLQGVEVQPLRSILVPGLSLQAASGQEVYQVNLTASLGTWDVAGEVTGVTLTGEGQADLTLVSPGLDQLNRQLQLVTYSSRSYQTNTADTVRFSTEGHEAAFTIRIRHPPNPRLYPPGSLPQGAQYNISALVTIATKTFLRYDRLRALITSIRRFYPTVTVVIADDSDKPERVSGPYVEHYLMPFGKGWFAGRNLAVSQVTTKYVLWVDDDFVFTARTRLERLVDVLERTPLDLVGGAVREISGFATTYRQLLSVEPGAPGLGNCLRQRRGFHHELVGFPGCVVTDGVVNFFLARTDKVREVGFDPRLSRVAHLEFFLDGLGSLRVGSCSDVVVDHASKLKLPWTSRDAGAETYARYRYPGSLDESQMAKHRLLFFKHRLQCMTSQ
UniProt Q9BXK5, whole entry, looked up: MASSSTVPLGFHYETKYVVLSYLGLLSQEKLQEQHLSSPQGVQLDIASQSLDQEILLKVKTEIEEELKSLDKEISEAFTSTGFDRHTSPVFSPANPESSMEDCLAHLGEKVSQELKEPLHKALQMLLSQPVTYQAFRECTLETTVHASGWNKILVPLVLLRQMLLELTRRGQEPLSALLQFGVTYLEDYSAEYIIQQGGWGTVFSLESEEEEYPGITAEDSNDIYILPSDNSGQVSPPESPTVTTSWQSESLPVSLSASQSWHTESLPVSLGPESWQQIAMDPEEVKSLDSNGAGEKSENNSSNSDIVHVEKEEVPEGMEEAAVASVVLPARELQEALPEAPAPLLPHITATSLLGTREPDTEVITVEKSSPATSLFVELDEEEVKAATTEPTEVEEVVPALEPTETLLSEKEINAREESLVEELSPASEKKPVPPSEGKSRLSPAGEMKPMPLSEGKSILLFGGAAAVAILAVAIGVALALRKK
UniProt Q16611: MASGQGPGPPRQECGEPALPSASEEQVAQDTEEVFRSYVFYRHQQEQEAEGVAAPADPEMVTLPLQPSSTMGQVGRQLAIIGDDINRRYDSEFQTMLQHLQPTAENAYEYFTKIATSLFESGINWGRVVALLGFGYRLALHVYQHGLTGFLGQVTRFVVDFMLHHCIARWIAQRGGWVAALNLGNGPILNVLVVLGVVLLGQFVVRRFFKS
UniProt O14867: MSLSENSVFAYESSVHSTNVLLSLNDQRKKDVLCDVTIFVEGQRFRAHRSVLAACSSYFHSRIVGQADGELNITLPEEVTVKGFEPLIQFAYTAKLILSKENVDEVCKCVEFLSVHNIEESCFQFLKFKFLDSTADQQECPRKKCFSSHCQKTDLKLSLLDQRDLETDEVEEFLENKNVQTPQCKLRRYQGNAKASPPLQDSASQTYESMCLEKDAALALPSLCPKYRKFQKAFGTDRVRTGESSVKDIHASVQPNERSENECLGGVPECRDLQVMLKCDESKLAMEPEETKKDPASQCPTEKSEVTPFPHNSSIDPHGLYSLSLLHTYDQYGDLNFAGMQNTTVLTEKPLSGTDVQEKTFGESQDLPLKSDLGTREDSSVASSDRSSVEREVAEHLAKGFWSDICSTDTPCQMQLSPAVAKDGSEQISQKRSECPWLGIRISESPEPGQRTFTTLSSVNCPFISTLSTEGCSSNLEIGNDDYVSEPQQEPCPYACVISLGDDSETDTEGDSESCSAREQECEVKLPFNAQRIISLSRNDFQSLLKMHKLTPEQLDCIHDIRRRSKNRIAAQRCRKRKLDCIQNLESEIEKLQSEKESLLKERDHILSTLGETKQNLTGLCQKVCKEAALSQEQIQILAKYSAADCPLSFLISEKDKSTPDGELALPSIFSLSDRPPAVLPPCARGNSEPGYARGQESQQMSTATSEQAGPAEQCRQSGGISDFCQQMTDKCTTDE
UniProt Q67FW5: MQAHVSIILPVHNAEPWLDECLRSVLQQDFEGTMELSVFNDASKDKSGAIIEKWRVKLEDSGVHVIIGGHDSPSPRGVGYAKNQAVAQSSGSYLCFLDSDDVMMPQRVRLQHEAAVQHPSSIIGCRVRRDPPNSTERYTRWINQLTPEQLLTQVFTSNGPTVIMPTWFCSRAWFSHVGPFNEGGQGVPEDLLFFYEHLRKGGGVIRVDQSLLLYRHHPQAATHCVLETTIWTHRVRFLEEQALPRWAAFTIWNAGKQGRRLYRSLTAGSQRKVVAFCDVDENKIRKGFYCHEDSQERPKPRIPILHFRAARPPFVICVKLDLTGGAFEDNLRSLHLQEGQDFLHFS
UniProt Q96GX2: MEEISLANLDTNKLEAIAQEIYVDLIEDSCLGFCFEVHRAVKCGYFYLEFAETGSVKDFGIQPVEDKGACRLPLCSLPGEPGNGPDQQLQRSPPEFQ
UniProt Q9BXH1: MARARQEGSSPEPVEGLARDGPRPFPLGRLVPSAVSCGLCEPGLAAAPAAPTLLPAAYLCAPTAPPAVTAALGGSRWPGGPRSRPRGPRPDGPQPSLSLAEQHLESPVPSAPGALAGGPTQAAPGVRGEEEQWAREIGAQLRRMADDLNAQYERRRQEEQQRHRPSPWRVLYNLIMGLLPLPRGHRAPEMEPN
UniProt Q9NUP1: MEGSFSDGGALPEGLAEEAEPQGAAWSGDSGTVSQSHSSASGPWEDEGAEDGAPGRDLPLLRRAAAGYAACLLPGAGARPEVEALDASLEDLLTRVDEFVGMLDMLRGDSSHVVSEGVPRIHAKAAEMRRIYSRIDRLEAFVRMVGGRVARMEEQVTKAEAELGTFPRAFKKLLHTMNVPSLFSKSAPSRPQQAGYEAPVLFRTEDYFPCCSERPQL
UniProt Q07817, whole entry, looked up: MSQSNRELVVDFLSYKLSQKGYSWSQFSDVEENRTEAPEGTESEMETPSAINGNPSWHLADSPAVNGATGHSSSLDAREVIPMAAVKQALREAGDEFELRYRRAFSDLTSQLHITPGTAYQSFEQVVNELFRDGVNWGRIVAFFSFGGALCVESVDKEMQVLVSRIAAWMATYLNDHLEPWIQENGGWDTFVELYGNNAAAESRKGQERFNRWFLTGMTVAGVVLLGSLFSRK
UniProt Q9NY97: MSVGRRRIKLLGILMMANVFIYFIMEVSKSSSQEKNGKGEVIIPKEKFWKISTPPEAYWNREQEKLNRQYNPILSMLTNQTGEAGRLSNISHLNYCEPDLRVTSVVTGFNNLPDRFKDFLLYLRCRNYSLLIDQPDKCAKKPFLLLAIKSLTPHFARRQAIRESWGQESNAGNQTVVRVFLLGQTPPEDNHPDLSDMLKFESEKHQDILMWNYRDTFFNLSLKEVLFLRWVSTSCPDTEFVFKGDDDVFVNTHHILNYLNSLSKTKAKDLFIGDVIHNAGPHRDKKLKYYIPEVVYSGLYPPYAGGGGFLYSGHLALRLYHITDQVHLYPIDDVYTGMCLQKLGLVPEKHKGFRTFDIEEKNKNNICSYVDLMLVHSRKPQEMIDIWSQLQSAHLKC
UniProt Q9H0E9, whole entry, looked up: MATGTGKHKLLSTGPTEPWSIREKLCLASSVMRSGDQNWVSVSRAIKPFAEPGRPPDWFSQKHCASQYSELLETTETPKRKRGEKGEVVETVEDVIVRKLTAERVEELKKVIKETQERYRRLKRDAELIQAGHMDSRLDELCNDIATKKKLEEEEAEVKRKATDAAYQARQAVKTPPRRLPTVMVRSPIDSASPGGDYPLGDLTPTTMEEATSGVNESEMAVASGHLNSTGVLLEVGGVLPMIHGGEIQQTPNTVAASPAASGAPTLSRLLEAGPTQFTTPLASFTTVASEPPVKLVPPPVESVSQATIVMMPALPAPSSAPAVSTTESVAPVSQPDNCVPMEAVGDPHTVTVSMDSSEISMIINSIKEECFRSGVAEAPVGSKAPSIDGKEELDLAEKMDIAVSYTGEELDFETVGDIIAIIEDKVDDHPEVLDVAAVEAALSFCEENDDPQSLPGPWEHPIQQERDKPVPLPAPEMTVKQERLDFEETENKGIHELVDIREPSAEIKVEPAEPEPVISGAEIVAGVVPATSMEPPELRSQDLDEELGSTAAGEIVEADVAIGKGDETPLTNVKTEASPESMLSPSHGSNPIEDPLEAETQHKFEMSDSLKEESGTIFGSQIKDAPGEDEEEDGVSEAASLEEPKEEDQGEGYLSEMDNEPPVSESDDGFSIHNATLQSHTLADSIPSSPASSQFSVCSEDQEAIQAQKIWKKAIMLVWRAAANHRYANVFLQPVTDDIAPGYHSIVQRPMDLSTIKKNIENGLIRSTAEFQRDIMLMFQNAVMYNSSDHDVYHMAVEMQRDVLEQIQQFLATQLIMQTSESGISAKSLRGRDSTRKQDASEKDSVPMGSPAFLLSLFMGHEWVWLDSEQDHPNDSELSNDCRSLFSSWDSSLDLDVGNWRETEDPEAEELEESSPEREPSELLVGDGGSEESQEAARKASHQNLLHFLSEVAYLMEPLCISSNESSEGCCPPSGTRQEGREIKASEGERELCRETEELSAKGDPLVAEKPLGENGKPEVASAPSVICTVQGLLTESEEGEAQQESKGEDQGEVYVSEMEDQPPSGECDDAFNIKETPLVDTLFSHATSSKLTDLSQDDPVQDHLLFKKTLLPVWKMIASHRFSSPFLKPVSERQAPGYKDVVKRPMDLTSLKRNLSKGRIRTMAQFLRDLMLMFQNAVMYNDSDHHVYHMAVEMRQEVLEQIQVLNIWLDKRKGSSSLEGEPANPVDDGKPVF
UniProt Q9Y679: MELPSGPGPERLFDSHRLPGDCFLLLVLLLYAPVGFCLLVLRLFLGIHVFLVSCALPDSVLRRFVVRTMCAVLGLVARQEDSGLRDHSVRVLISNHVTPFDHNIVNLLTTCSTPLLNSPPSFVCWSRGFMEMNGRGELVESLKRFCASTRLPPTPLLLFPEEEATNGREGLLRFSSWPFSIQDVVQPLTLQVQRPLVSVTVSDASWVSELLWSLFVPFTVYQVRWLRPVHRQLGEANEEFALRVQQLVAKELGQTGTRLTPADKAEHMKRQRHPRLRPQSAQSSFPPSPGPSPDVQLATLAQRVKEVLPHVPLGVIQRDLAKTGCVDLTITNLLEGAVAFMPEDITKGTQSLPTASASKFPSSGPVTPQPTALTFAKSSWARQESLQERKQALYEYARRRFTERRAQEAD

Tests used:
Assay in all cases: log2 fold change, soluble protein after heating vs DMSO (PISA); higher = thermal stabilisation; K562 cells, 10 uM, 30 min; active = over 0.2 and 3.5 SD of the protein, either way, in both replicates (recomputed)
[1] = compound: C1=CC=C(C=C1)[C@H](COC2=CC3=C(C=C2)NC(=O)N3)NC(=O)C4=CC=CN(C4=O)CC5=CC(=C(C=C5)F)F
How it was run: (§1)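 Soluble protein was quantified by TMTpro 16plex LC-MS/MS after channel sums were equalised. It was obtained as the supernatant after 21,000xg for 90 min from pooled aliquots of K562 cells (2×10^6 cells/mL, 10 μM compound, 30 min) heated for 3 min across 48°C-58°C and extracted in PBS with 0.5% NP-40 at 4°C. Thermal stability values are relative to control samples and come from duplicates. They are given as log2 fold changes.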

[2] = compound: CC1=C(SC2=C1C(=N[C@H](C3=NN=C(N32)C)CC(=O)N)C4=CC=C(C=C4)Cl)C
How it was run: as §1

[3] = compound: CC1=C2C(=CC=C1)N=C(N(C2=O)C3=CC=CC=C3C)CN4C=NC5=C(N=CN=C54)N
How it was run: as §1

[4] = compound: Cc1sc2c(c1C)C(c1ccc(Cl)cc1)=N[C@@H](CC(=O)OC(C)(C)C)c1nnc(C)n1-2
How it was run: as §1

[5] = compound: c1ccc([C@@H]2C[C@H]2NC2CCNCC2)cc1
How it was run: as §1

Measured: log2 fold change

ATRN (UniProt O75882)
inactive: [1] -0.011 | [2] -0.031 | [3] 0.027 | [4] -0.055 | [5] 0.006

B4GALNT1 (UniProt Q00973)
inactive: [1] -0.029 | [2] -0.068 | [3] -0.001 | [4] -0.102 | [5] -0.062

BCL2L13 (UniProt Q9BXK5)
inactive: [1] -0.035 | [2] 0.03 | [3] 0.033 | [4] -0.006 | [5] -0.005

BAIAP2 (UniProt Q9UQB8)
inactive: [1] -0.019 | [2] 0.071 | [3] 0.072 | [4] 0.014 | [5] 0.002

AUH (UniProt Q13825)
inactive: [1] 0.015 | [2] 0.065 | [3] -0.116 | [4] -0.042 | [5] -0.001

BRD3 (UniProt Q15059)
inactive: [1] 0.002 | [3] 0 | [5] -0.021
active: [2] 1.9 | [4] 1.56

BNIP1 (UniProt Q12981)
inactive: [1] -0.046 | [2] 0.042 | [3] 0.091 | [4] -0.025 | [5] -0.03

BAIAP2L1 (UniProt Q9UHR4)
inactive: [1] 0.013 | [2] 0.029 | [3] 0.038 | [4] 0.025 | [5] 0.011

BCL9L (UniProt Q86UU0)
inactive: [1] 0.001 | [2] -0.028 | [3] 0.019 | [4] 0.051 | [5] 0.05

BRAF (UniProt P15056)
inactive: [1] -0.04 | [2] 0.075 | [3] 0.041 | [4] -0.018 | [5] -0.027

BAK1 (UniProt Q16611)
inactive: [1] -0.035 | [2] 0.09 | [3] 0.059 | [4] -0.001 | [5] 0.026

BRCC3 (UniProt P46736)
inactive: [1] 0.019 | [2] -0.019 | [3] 0.033 | [4] 0.028 | [5] 0.038

B3GLCT (UniProt Q6Y288)
inactive: [1] 0.015 | [2] -0.025 | [3] -0.051 | [4] -0.004 | [5] 0

BRD4 (UniProt O60885)
active: [2] 2.22 | [4] 1.99
inactive: [1] -0.116 | [3] 0.141 | [5] 0.029

BAHCC1 (UniProt Q9P281)
inactive: [1] -0.126 | [2] -0.064 | [3] 0.273 | [4] 0.164 | [5] -0.024

BACH1 (UniProt O14867)
inactive: [1] 0.011 | [2] 0.031 | [3] -0.002 | [4] 0.04 | [5] -0.014

B3GNTL1 (UniProt Q67FW5)
inactive: [1] 0.009 | [2] 0.091 | [3] 0.093 | [4] -0.019 | [5] -0.005

BAG1 (UniProt Q99933)
inactive: [1] 0.006 | [2] 0.036 | [3] 0.03 | [4] -0.035 | [5] 0.053

ATXN7L3B (UniProt Q96GX2)
inactive: [1] 0.012 | [2] 0.051 | [3] 0.093 | [4] -0.025 | [5] 0.049

BBC3 (UniProt Q9BXH1)
inactive: [1] 0.046 | [2] 0.026 | [3] 0.203 | [4] -0.049 | [5] -0.039

BCKDHB (UniProt P21953)
inactive: [1] -0.076 | [2] -0.066 | [3] 0.074 | [4] -0.065 | [5] 0.089

Random excerpt: two entries already listed.
B3GNTL1 (UniProt Q67FW5)
inactive: [1] 0.009 | [2] 0.091 | [3] 0.093 | [4] -0.019 | [5] -0.005

BBC3 (UniProt Q9BXH1)
inactive: [1] 0.046 | [2] 0.026 | [3] 0.203 | [4] -0.049 | [5] -0.039

(listing goes on)

BLOC1S4 (UniProt Q9NUP1)
inactive: [1] -0.032 | [2] 0.028 | [3] 0.025 | [4] -0.029 | [5] -0.022

BLVRA (UniProt P53004)
inactive: [1] -0.062 | [2] 0.104 | [3] 0.054 | [4] -0.024 | [5] -0.066

BCL2L1 (UniProt Q07817)
inactive: [1] -0.024 | [2] 0.021 | [3] 0.016 | [4] -0.077 | [5] -0.008

B3GNT2 (UniProt Q9NY97)
inactive: [1] 0.021 | [2] 0.133 | [3] 0.047 | [4] 0.049 | [5] -0.037

BRD8 isoform 2 (UniProt Q9H0E9)
inactive: [1] 0.035 | [2] -0.091 | [3] 0.167 | [4] 0.046 | [5] 0.038

AUP1 (UniProt Q9Y679)
inactive: [1] -0.044 | [2] 0.053 | [3] 0.028 | [4] -0.074 | [5] -0.051
